Results as given in the supplement of paper PMC12819154, “High-throughput peptide-centric local stability assay extends protein–ligand identification to membrane proteins, tissues and bacteria” (Nature Structural & Molecular Biology, 2025).
The other results are listed elsewhere or left out. Most entries show no effect beyond the scatter of the controls.

Amino acid sequences for entries named in this document (tags omitted). A change or cut given only in a name is not applied to a line headed by its entry.
UniProt O00560: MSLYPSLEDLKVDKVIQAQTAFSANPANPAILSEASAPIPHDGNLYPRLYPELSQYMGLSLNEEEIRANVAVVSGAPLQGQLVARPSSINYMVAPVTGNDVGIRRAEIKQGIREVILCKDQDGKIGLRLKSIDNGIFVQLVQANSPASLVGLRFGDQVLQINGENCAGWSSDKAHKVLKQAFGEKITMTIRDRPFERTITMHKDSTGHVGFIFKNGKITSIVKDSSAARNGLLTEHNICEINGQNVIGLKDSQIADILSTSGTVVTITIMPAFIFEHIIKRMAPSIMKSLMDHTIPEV
UniProt O00458: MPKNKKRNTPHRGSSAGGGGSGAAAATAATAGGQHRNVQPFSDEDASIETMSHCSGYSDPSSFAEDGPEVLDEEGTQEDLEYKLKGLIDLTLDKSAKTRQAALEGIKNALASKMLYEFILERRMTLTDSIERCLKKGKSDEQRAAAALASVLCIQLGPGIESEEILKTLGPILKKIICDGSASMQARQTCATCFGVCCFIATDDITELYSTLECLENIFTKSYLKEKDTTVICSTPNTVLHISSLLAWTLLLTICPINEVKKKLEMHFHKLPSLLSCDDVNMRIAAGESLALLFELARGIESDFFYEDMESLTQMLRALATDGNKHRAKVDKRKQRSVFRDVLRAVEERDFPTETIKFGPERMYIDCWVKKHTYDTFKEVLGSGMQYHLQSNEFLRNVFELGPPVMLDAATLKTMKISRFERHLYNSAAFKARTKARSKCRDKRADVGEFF
UniProt O14732: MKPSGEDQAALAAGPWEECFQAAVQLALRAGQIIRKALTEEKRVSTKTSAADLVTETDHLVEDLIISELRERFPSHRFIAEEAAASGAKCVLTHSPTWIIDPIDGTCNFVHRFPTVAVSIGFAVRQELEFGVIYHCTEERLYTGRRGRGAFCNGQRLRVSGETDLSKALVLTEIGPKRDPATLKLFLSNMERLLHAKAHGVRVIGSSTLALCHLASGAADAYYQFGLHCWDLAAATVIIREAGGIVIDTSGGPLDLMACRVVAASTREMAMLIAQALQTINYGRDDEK
UniProt O14967: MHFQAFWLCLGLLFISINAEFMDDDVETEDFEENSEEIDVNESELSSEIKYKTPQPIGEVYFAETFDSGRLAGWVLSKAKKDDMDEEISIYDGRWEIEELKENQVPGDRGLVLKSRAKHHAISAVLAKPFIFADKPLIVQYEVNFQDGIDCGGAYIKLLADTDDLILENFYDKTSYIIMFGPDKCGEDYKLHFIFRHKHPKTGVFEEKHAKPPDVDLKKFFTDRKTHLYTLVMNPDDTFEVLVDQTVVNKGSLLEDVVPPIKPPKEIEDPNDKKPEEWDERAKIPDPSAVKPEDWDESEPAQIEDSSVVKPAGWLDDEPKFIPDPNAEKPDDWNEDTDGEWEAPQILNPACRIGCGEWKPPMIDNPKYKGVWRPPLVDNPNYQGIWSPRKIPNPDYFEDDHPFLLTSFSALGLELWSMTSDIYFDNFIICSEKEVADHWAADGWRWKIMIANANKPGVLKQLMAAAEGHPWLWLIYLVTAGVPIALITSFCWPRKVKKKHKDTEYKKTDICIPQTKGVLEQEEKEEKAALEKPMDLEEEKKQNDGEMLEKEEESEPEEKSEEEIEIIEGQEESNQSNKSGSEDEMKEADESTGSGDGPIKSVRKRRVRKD
UniProt O00767: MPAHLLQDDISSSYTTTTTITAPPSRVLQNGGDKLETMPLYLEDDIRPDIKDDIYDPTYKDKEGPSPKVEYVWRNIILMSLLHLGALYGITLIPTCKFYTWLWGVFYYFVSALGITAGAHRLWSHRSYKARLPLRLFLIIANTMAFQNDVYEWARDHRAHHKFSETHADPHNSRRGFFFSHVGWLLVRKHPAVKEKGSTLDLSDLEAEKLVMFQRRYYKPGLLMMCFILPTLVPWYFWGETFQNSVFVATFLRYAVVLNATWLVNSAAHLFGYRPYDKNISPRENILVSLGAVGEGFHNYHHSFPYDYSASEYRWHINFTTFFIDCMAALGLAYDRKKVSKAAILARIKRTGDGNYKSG
UniProt O00422: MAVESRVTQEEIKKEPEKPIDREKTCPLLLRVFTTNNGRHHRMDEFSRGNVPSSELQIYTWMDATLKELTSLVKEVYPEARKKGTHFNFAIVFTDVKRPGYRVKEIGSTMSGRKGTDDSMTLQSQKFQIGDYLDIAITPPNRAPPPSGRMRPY
UniProt O00401, whole entry: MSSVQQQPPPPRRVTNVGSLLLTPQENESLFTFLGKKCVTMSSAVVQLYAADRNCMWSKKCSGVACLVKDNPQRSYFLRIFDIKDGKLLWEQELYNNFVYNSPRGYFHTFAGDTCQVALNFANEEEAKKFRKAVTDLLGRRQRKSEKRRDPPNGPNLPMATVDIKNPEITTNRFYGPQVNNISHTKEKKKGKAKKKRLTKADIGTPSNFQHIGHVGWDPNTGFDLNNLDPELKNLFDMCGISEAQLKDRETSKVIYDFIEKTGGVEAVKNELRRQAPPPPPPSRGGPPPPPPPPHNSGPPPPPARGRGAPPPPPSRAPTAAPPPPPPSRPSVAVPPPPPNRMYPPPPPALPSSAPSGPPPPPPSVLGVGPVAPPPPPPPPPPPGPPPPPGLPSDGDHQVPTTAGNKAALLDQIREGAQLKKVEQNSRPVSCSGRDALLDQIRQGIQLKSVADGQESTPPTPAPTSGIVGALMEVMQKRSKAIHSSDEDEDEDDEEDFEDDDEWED
UniProt O14543: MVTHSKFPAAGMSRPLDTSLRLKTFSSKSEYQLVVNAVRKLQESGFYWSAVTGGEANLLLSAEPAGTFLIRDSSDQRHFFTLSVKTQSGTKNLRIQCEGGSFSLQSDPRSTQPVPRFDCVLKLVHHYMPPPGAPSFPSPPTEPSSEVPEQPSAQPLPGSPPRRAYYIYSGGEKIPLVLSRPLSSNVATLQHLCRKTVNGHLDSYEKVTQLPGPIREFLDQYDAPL
UniProt O00303, whole entry: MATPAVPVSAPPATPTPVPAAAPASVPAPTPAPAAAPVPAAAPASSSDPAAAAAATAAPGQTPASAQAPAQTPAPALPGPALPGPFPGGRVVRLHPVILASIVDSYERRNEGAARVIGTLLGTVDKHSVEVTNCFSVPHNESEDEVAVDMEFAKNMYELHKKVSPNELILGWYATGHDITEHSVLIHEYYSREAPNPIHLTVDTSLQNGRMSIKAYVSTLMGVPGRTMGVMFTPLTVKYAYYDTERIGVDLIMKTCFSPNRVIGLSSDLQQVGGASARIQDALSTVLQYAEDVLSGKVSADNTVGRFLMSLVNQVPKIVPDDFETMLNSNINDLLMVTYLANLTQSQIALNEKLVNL
UniProt O14593: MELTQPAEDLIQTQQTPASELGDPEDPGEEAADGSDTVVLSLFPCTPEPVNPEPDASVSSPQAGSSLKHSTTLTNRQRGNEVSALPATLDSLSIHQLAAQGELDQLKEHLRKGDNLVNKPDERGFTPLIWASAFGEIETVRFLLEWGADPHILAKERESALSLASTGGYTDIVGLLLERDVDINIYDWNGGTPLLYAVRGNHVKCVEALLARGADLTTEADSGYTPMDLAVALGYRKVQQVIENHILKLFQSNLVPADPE
UniProt O14640: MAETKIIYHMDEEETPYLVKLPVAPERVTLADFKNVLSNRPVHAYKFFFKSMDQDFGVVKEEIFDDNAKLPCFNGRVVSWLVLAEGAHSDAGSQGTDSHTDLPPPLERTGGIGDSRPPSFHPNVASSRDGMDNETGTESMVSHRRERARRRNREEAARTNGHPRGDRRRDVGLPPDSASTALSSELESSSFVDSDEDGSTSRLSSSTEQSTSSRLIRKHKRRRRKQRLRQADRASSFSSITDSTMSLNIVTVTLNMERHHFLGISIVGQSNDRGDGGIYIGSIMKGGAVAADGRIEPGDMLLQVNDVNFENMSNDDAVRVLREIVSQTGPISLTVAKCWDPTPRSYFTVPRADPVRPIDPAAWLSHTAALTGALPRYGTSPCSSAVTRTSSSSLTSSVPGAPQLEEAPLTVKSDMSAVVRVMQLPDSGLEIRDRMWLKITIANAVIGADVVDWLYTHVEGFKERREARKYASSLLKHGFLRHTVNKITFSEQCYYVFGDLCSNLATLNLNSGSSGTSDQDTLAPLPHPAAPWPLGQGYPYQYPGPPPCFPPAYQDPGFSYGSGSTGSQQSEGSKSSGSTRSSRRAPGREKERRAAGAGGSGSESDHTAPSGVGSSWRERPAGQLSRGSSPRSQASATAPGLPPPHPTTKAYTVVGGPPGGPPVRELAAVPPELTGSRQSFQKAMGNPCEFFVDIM
UniProt O15211: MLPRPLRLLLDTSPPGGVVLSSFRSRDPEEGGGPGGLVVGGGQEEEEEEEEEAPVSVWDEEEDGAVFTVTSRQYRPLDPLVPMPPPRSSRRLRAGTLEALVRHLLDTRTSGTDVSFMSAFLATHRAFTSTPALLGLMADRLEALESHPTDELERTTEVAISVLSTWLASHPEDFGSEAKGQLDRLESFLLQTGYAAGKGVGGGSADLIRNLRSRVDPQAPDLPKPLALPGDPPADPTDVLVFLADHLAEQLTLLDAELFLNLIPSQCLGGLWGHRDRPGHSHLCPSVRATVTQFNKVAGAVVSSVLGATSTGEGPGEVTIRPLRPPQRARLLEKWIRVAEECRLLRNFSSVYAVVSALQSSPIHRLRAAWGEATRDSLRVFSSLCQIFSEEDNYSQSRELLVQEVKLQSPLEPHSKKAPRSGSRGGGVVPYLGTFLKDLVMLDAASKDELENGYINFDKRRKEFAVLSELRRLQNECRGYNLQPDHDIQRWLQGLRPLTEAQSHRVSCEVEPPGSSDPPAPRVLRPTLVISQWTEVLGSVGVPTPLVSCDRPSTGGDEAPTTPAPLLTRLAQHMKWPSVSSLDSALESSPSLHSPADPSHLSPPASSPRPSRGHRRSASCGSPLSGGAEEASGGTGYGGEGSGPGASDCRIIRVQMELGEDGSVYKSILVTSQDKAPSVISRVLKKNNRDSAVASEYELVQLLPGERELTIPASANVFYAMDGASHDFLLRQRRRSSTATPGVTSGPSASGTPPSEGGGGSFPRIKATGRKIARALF
UniProt O00487, whole entry: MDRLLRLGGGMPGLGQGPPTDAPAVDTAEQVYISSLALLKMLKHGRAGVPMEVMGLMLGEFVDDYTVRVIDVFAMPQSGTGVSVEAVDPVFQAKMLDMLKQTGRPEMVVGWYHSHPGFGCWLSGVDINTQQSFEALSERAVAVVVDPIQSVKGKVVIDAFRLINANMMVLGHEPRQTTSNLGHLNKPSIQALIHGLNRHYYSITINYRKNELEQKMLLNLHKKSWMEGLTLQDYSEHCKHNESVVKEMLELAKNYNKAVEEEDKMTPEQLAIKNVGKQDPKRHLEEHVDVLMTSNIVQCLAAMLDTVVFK
UniProt O14727: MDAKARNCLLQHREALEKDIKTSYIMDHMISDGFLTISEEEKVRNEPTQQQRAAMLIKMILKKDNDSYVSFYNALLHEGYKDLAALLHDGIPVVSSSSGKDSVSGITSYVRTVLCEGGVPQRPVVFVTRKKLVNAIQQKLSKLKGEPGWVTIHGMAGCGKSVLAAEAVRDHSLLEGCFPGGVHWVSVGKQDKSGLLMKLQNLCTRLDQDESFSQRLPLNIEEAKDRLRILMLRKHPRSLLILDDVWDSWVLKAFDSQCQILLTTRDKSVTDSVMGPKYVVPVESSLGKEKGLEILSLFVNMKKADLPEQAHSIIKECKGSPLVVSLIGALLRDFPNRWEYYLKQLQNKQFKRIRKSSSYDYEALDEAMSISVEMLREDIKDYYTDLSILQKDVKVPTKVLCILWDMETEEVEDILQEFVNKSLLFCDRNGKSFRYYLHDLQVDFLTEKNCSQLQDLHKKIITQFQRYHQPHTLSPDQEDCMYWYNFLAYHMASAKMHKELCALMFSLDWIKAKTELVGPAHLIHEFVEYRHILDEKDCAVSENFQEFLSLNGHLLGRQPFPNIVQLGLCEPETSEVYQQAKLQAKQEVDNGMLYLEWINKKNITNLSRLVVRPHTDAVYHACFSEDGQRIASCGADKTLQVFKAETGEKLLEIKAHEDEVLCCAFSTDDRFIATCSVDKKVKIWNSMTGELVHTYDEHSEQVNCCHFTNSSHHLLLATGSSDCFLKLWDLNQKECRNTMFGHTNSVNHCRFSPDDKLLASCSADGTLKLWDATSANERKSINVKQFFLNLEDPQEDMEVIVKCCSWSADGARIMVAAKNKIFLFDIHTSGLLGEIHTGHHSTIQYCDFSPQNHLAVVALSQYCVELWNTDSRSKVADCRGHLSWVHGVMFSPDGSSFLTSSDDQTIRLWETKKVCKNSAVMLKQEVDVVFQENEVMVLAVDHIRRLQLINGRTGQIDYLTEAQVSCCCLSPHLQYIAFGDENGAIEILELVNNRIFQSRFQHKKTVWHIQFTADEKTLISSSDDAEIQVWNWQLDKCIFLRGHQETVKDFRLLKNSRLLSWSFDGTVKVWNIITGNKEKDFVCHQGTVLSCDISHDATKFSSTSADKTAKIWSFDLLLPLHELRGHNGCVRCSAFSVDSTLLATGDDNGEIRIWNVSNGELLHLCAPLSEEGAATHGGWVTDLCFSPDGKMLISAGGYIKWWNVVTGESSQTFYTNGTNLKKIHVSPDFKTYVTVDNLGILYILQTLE

Compound: Cc1nc(Nc2ncc(C(=O)Nc3c(C)cccc3Cl)s2)cc(N2CCN(CCO)CC2)n1 [dasatinib]
Assay: log2 fold change of tryptic peptide abundance, ligand vs vehicle (limited proteolysis) (log2 ratio); higher = more trypsin-susceptible (destabilized)
Conditions: ligand concentration: 5 uM; sample: K562 cleared lysate

| Target | log2 fold change |
| --- | --- |
| SDCBP (peptide sequence: FGDQVLQINGENCAGWSSDKAHK, peptide start residue: 154) (UniProt O00560) | -0.281 |
| UniProt O15037 (peptide sequence: EPPGAHGSCHR, peptide start residue: 324) | 0.709 |
| IFRD1 (peptide sequence: MYIDCWVKK, peptide start residue: 363) (UniProt O00458) | 0.302 |
| TOR1A (peptide sequence: LYCLFAECCGQKR, peptide start residue: 42) (UniProt O14656) | -0.0704 |
| MRPS12 (peptide sequence: KLGPTEGRPQLK, peptide start residue: 48) (UniProt O15235) | 0.0528 |
| IMPA2 (peptide sequence: QELEFGVIYHCTEER, peptide start residue: 126) (UniProt O14732) | -0.481 |
| OGG1 (peptide sequence: ESSYEEAHK, peptide start residue: 230) (UniProt O15527) | -0.0776 |
| BTAF1 (peptide sequence: ATGHVFQALQYLRK, peptide start residue: 1564) (UniProt O14981) | 0.457 |
| KIAA1324L (peptide sequence: KNQKLEYK, peptide start residue: 952) (UniProt A8MWY0) | 0.144 |
| CLGN (peptide sequence: GVLEQEEKEEK, peptide start residue: 517) (UniProt O14967) | -0.08 |
| SCD (peptide sequence: FSETHADPHNSR, peptide start residue: 163) (UniProt O00767) | -0.0385 |
| UniProt D6RIA3 (peptide sequence: TGGVAGK, peptide start residue: 1408) | 0.145 |
| SAP18 (peptide sequence: KKGTHFNFAIVFTDVK, peptide start residue: 82) (UniProt O00422) | -0.157 |
| PRMT5 (peptide sequence: QGFDFLCMPVFHPR, peptide start residue: 36) (UniProt O14744) | 0.301 |
| WASL (peptide sequence: KVEQNSRPVSCSGR, peptide start residue: 421) (UniProt O00401) | -0.182 |
| ARHGEF10 (peptide sequence: HLAVHPPESLAVVANAKPNK, peptide start residue: 722) (UniProt O15013) | -0.502 |
| KPNA3 (peptide sequence: RDEHLLKK, peptide start residue: 41) (UniProt O00505) | -0.798 |
| UniProt O14543 (peptide sequence: SEYQLVVNAVR, peptide start residue: 29) | 0.0796 |
| EIF3F (peptide sequence: IGVDLIMK, peptide start residue: 247) (UniProt O00303) | 0.0366 |
| UniProt B7ZW38 (peptide sequence: VFIGNLNTLVVKK, peptide start residue: 18) | 0.0614 |
| RFXANK (peptide sequence: KGDNLVNKPDER, peptide start residue: 112) (UniProt O14593) | -0.144 |
| DVL1 (peptide sequence: TGGIGDSRPPSFHPNVASSR, peptide start residue: 109) (UniProt O14640) | -0.2 |
| RGL2 (peptide sequence: TSGTDVSFMSAFLATHR, peptide start residue: 109) (UniProt O15211) | 0.554 |
| UniProt O00487 (peptide sequence: SWMEGLTLQDYSEHCK, peptide start residue: 224) | 0.128 |
| UniProt O15523 (peptide sequence: MLDMGFEPQIR, peptide start residue: 253) | -0.122 |
| HAX1 (peptide sequence: ITKPDGIVEER, peptide start residue: 216) (UniProt O00165) | -0.169 |
| GYG2 (peptide sequence: VKELSPEEER, peptide start residue: 464) (UniProt O15488) | 0.275 |
| APAF1 (peptide sequence: AHEDEVLCCAFSTDDR, peptide start residue: 655) (UniProt O14727) | -0.893 |

A stretch from further up, for reference:

| Target | log2 fold change |
| --- | --- |
| EIF3F (peptide sequence: IGVDLIMK, peptide start residue: 247) (UniProt O00303) | 0.0366 |
| UniProt B7ZW38 (peptide sequence: VFIGNLNTLVVKK, peptide start residue: 18) | 0.0614 |
